A short description of this series: general procedure: Fmoc solid-phase peptide synthesis; rink amide MBHA resin (100–200 mesh); HATU/HOAt. To be noted: for isolated mass / isolated yield: whole synthesis; for isolated yield: scale of the general procedure 62.5 μmol; for conjugation yield: conjugation step.

Starred links: 1 amine or outer side, 2 acyl side, 3 side chain; linkers in the order of their positions; H or OH if unused. Positions of bridges follow the written chain, without caps; N, C: chain ends. Non-standard residues stand in square brackets, D forms with d. Chains are numbered I, II in the order given. *: point of attachment. X2 = CC(=O)NC1CCCN(O)C(=O)C=C(C)CCOC(=O)C(NC(=O)CCN2C(=O)CC([*:1])C2=O)CCCN(O)C(=O)C=C(C)CCOC(=O)C(NC(=O)CCN2C(=O)CC([*:2])C2=O)CCCN(O)C(=O)C=C(C)CCOC1=O; X3 = CC(=O)NC1CCCN(O)C(=O)C=C(C)CCOC(=O)C(NC(=O)CCN2C(=O)CC(*)C2=O)CCCN(O)C(=O)C=C(C)CCOC(=O)C(NC(C)=O)CCCN(O)C(=O)C=C(C)CCOC1=O; Nle = CCCC[C@H](N)C(=O)O; Mpa = O=C(O)CCS

“3-MP^0-[D-Glu^1,desGlu^2-6]-Ala-Tyr-Gly-Trp-Met-Asp-Phe-NH2” displayed an isolated mass of 37.6 mg and an isolated yield of 54%.

As to “3-MP^0-[D-Glu^1,desGlu^2-6]-Ala-Tyr-Gly-Trp-Nle-Asp-Phe-NH2”, the isolated mass stood at 32.1 mg and the isolated yield was found to be 47%.

“I: [Mpa][dE]AYGW[Nle]DF-NH2 / II: [Mpa][dE]AYGW[Nle]DF-NH2 (linker I:1-II:1 via X2; SMILES CCCC[C@H](NC(=O)[C@H](Cc1c[nH]c2ccccc12)NC(=O)CNC(=O)[C@H](Cc1ccc(O)cc1)NC(=O)[C@H](C)NC(=O)[C@@H](CCC(=O)O)NC(=O)CCSC1CC(=O)N(CCC(=O)NC2CCCN(O)C(=O)C=C(C)CCOC(=O)C(NC(=O)CCN3C(=O)CC(SCCC(=O)N[C@H](CCC(=O)O)C(=O)N[C@@H](C)C(=O)N[C@@H](Cc4ccc(O)cc4)C(=O)NCC(=O)N[C@@H](Cc4c[nH]c5ccccc45)C(=O)N[C@@H](CCCC)C(=O)N[C@@H](CC(=O)O)C(=O)N[C@@H](Cc4ccccc4)C(N)=O)C3=O)CCCN(O)C(=O)C=C(C)CCOC(=O)C(NC(C)=O)CCCN(O)C(=O)C=C(C)CCOC2=O)C1=O)C(=O)N[C@@H](CC(=O)O)C(=O)N[C@@H](Cc1ccccc1)C(N)=O)” registered a conjugation yield of 79%.

“[Mpa](X3)[dE]AYGW[Nle]DF-NH2 (SMILES CCCC[C@H](NC(=O)[C@H](Cc1c[nH]c2ccccc12)NC(=O)CNC(=O)[C@H](Cc1ccc(O)cc1)NC(=O)[C@H](C)NC(=O)[C@@H](CCC(=O)O)NC(=O)CCSC1CC(=O)N(CCC(=O)NC2CCCN(O)C(=O)C=C(C)CCOC(=O)C(NC(C)=O)CCCN(O)C(=O)C=C(C)CCOC(=O)C(NC(C)=O)CCCN(O)C(=O)C=C(C)CCOC2=O)C1=O)C(=O)N[C@@H](CC(=O)O)C(=O)N[C@@H](Cc1ccccc1)C(N)=O)” returned a conjugation yield of 70%.

For the origin of these results see publication PMC6066219 (PLoS ONE, 2018).
